From the supplement of paper PMC12819154, “High-throughput peptide-centric local stability assay extends protein–ligand identification to membrane proteins, tissues and bacteria” (Nature Structural & Molecular Biology, 2025)
The list shows a part of the results. Small differences around the control level are noise.

Chains of the proteins cited; added tags and fusions are not shown. Lines headed by an entry give the natural chain unless they say otherwise; changes in a name come on top.
UniProt Q14249: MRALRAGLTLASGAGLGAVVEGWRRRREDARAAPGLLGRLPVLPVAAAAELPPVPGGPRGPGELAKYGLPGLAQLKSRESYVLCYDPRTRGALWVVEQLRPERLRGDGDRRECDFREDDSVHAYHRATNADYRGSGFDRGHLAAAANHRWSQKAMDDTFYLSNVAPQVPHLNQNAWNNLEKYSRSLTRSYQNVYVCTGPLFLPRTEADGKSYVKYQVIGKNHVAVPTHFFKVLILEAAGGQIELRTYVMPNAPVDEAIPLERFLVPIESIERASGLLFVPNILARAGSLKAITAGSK
UniProt Q13427: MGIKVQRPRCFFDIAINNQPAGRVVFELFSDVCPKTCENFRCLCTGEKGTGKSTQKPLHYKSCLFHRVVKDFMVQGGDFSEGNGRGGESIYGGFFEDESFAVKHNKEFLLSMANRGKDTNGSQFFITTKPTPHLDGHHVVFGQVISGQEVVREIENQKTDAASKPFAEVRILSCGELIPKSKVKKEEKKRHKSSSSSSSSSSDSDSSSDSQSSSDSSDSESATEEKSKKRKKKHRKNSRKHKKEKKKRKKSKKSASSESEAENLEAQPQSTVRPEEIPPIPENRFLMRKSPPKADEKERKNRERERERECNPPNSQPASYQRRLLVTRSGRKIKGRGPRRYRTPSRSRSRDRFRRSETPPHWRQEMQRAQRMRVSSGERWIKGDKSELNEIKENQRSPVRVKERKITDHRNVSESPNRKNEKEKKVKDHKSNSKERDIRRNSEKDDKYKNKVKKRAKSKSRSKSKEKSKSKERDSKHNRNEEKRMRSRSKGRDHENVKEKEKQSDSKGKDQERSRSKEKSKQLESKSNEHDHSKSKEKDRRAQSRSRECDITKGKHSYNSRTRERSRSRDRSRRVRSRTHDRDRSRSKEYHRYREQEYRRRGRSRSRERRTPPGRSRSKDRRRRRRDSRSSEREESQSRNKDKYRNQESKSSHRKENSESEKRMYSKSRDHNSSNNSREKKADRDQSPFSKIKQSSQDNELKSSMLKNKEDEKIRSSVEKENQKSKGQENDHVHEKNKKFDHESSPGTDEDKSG
UniProt Q13825: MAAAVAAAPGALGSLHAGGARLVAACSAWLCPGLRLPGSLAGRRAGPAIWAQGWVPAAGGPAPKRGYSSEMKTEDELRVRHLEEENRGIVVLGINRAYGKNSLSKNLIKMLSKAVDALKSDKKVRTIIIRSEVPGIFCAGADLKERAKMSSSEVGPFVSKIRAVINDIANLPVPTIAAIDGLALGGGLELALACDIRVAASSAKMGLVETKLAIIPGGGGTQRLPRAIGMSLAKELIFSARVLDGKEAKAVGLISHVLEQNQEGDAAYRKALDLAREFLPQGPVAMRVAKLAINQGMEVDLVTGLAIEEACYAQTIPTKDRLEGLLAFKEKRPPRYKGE
UniProt Q14188: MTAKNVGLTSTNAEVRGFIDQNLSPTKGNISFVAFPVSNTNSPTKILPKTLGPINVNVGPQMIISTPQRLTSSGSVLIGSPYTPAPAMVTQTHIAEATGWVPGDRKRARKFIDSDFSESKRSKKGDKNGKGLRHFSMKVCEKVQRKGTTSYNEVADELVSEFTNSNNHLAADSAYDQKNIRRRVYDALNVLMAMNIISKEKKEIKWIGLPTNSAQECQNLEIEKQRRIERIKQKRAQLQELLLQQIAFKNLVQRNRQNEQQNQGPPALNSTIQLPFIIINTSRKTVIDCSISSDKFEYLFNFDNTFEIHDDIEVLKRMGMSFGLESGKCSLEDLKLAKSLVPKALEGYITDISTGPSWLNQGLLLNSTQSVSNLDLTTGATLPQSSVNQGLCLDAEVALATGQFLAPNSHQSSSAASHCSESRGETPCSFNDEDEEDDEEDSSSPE
UniProt Q14558: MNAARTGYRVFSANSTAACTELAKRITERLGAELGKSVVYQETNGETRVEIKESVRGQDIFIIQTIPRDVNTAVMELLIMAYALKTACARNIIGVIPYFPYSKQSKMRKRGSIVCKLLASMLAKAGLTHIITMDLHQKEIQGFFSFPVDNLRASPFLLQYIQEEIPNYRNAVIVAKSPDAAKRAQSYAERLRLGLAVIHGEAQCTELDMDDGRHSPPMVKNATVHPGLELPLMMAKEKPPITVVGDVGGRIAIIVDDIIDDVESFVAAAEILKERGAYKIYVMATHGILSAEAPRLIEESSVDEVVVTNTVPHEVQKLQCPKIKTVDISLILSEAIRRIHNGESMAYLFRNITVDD
UniProt Q13503: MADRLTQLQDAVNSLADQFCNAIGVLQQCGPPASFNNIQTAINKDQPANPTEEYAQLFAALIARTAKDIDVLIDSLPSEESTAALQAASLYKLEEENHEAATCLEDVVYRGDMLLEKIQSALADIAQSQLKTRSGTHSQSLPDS
UniProt Q14999: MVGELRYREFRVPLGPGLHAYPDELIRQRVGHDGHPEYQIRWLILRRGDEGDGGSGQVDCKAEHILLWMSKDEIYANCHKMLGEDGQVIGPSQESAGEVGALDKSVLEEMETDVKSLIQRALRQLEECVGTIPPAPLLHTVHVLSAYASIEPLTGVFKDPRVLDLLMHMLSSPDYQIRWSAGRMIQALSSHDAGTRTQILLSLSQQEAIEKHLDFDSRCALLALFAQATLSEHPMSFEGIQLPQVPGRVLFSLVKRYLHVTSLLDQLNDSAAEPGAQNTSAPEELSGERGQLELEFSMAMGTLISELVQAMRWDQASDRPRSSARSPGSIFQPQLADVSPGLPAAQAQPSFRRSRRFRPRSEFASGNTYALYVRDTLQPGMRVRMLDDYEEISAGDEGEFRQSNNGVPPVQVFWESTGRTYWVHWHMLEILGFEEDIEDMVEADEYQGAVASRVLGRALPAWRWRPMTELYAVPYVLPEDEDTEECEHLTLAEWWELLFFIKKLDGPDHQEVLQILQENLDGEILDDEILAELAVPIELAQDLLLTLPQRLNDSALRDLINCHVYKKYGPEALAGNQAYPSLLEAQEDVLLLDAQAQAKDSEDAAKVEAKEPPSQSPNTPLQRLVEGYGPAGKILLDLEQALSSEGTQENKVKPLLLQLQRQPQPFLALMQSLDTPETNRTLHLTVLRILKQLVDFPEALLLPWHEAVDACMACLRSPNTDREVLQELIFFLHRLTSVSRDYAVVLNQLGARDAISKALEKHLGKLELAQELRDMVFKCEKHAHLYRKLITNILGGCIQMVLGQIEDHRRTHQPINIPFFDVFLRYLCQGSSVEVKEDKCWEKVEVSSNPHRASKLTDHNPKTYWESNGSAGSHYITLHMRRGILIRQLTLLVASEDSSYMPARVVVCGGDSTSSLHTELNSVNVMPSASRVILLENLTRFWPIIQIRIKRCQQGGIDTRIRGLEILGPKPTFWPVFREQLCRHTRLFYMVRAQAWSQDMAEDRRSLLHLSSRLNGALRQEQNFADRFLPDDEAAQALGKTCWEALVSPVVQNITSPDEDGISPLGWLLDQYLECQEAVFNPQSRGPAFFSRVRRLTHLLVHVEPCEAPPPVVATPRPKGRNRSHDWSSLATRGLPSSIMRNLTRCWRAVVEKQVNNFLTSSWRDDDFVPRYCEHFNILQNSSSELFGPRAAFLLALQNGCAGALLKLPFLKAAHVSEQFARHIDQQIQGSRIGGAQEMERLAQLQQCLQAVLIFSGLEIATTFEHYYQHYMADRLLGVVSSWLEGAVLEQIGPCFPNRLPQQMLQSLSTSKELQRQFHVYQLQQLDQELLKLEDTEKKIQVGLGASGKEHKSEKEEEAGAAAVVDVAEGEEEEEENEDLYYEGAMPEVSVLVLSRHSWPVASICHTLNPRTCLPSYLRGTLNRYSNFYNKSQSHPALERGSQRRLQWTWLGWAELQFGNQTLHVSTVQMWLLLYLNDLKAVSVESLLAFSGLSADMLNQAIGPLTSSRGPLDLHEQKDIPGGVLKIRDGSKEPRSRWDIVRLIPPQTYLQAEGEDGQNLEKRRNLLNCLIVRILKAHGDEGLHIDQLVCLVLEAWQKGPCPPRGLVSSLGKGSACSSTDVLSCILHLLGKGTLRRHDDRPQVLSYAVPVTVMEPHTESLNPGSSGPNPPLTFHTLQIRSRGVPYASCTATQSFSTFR
UniProt Q14493, whole entry, looked up: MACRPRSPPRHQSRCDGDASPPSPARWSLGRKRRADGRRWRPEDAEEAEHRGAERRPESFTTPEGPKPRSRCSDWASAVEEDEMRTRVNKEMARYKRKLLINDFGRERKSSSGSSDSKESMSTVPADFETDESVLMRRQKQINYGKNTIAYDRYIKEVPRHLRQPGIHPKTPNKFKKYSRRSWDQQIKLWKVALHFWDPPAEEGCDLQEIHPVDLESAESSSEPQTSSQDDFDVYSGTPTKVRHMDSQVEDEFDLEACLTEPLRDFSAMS
UniProt Q14050: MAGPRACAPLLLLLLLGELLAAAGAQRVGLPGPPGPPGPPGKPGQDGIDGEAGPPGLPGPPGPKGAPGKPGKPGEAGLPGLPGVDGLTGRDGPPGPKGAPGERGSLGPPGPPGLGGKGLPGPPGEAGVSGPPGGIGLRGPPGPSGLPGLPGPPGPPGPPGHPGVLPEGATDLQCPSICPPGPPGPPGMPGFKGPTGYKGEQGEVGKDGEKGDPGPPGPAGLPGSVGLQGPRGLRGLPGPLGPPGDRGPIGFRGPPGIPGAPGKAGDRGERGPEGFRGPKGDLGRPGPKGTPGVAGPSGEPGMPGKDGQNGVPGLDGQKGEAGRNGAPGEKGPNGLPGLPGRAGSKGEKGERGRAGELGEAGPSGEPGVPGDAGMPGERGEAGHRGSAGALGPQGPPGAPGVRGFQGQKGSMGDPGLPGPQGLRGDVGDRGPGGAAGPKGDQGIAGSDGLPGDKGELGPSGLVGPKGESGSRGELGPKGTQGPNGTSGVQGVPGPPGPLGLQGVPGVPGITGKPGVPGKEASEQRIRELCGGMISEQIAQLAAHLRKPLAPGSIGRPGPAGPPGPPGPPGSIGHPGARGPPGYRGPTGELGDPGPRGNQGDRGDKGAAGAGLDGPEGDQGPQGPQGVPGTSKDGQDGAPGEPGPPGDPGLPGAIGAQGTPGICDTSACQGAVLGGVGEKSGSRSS
UniProt Q13637: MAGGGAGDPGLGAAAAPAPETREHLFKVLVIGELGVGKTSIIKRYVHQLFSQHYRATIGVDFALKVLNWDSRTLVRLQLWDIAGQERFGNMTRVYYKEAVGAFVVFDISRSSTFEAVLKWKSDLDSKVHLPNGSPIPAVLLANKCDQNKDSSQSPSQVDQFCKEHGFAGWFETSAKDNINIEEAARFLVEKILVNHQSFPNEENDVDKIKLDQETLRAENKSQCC
UniProt Q14651: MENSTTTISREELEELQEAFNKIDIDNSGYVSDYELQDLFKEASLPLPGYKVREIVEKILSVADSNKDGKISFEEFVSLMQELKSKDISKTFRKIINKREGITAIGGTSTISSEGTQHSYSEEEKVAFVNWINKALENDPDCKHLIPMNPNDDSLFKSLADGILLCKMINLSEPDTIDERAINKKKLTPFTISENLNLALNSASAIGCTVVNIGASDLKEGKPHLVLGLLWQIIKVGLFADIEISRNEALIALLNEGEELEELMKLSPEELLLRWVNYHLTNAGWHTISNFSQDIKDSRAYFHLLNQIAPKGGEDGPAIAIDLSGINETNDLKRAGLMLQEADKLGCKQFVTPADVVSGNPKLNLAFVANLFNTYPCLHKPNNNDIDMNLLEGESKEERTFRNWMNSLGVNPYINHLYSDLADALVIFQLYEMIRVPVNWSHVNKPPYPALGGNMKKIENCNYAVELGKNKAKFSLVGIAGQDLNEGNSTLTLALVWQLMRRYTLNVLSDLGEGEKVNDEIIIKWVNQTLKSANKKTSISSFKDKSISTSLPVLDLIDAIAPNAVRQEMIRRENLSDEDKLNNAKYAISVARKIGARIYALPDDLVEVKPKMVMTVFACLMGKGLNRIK
UniProt Q14258, whole entry: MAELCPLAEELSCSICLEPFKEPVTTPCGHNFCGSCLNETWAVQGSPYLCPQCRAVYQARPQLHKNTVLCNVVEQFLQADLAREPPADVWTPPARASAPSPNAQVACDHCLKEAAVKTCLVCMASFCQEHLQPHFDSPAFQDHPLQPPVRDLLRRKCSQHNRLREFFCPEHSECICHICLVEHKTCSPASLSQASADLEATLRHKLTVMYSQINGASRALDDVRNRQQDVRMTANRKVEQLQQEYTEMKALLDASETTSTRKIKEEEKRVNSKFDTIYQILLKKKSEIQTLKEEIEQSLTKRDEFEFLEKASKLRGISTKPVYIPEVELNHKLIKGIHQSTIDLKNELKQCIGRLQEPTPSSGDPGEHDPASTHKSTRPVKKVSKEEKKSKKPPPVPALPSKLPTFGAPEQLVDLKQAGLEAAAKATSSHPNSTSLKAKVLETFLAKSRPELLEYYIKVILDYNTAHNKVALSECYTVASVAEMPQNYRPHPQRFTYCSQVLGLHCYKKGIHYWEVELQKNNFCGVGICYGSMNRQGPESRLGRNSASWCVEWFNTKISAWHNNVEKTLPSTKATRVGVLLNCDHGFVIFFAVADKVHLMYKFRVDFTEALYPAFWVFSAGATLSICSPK

Each target was assayed with CN[C@@H]1C[C@H]2O[C@@](C)([C@@H]1OC)n1c3ccccc3c3c4c(c5c6ccccc6n2c5c31)C(=O)NC4 [staurosporine] (assay: log2 fold change of tryptic peptide abundance, ligand vs vehicle (limited proteolysis) (log2 ratio); higher = more trypsin-susceptible (destabilized)). Settings: ligand concentration: 20 uM; sample: K562 cleared lysate; digestion: 4 min, 22 C (HT-PELSA RT4min, Orbitrap Astral).

Target	log2 fold change
ENDOG (peptide sequence: YGLPGLAQLK, peptide start residue: 67) (UniProt Q14249)	0.101
ZMYM3 (peptide sequence: REDEAPILEQR, peptide start residue: 1276) (UniProt Q14202)	0.488
UniProt Q14696 (peptide sequence: LLEQWEKDDDIEEGDLPEHK, peptide start residue: 66)	-0.103
PPIG (peptide sequence: EFLLSMANR, peptide start residue: 107) (UniProt Q13427)	-0.382
MORF4L2 (peptide sequence: QKTPGNGDGGSTSEAPQPPRK, peptide start residue: 80) (UniProt Q15014)	-0.574
SHPRH (peptide sequence: TVEVLALILTHTR, peptide start residue: 380) (UniProt Q149N8)	0.738
AUH (peptide sequence: LEGLLAFK, peptide start residue: 322) (UniProt Q13825)	0.406
NUMA1 (peptide sequence: AEVSKLEQQCQK, peptide start residue: 1127) (UniProt Q14980)	-0.176
UniProt Q14562 (peptide sequence: GIGMMPNDIPEWKK, peptide start residue: 527)	-0.152
NFYC (peptide sequence: MISAEAPVLFAK, peptide start residue: 60) (UniProt Q13952)	0.117
CUL4A (peptide sequence: EVPEYLNHVSKR, peptide start residue: 255) (UniProt Q13619)	0.55
CKAP5 (peptide sequence: SVNLLVVK, peptide start residue: 1667) (UniProt Q14008)	0.167
UniProt Q14593 (peptide sequence: GPPSVAPLPAGIGR, peptide start residue: 7)	-0.0234
TFDP2 (peptide sequence: NVGLTSTNAEVR, peptide start residue: 5) (UniProt Q14188)	-0.423
MDC1 (peptide sequence: AHEVGAQGGPPVAQVEQDLPISR, peptide start residue: 620) (UniProt Q14676)	-0.527
G3BP1 (peptide sequence: HPDSHQLFIGNLPHEVDK, peptide start residue: 336) (UniProt Q13283)	0.87
ARHGEF7 (peptide sequence: ASEKPVSPK, peptide start residue: 243) (UniProt Q14155)	0.292
THOC5 (peptide sequence: YTCQELQR, peptide start residue: 57) (UniProt Q13769)	-0.38

Part of the list above, as a markdown table.

| Target | log2 fold change |
| --- | --- |
| MORF4L2 (peptide sequence: QKTPGNGDGGSTSEAPQPPRK, peptide start residue: 80) (UniProt Q15014) | -0.574 |
| SHPRH (peptide sequence: TVEVLALILTHTR, peptide start residue: 380) (UniProt Q149N8) | 0.738 |
| AUH (peptide sequence: LEGLLAFK, peptide start residue: 322) (UniProt Q13825) | 0.406 |
| NUMA1 (peptide sequence: AEVSKLEQQCQK, peptide start residue: 1127) (UniProt Q14980) | -0.176 |
| UniProt Q14562 (peptide sequence: GIGMMPNDIPEWKK, peptide start residue: 527) | -0.152 |
| NFYC (peptide sequence: MISAEAPVLFAK, peptide start residue: 60) (UniProt Q13952) | 0.117 |
| CUL4A (peptide sequence: EVPEYLNHVSKR, peptide start residue: 255) (UniProt Q13619) | 0.55 |
| CKAP5 (peptide sequence: SVNLLVVK, peptide start residue: 1667) (UniProt Q14008) | 0.167 |
| UniProt Q14593 (peptide sequence: GPPSVAPLPAGIGR, peptide start residue: 7) | -0.0234 |

The listing continues:

Target	log2 fold change
PRPSAP1 (peptide sequence: EIQGFFSFPVDNLR, peptide start residue: 139) (UniProt Q14558)	0.548
TCOF1 (peptide sequence: NPASLPLTQAALK, peptide start residue: 1066) (UniProt Q13428)	0.213
MED21 (peptide sequence: IQSALADIAQSQLK, peptide start residue: 118) (UniProt Q13503)	0.227
CUL7 (peptide sequence: SQSHPALER, peptide start residue: 1432) (UniProt Q14999)	0.858
SLBP (peptide sequence: LLINDFGR, peptide start residue: 99) (UniProt Q14493)	-0.0775
UniProt Q14129 (peptide sequence: VADQQSTLEK, peptide start residue: 149)	-0.404
UniProt Q14050 (peptide sequence: GPTGELGDPGPR, peptide start residue: 584)	-0.279
RAB32 (peptide sequence: VHLPNGSPIPAVLLANK, peptide start residue: 128) (UniProt Q13637)	0.663
EFTUD2 (peptide sequence: CFAETPNKK, peptide start residue: 674) (UniProt Q15029)	0.426
SNX17 (peptide sequence: SGDSGGSAYVAYNIHVNGVLHCR, peptide start residue: 12) (UniProt Q15036)	-0.516
PLS1 (peptide sequence: SLADGILLCK, peptide start residue: 158) (UniProt Q14651)	0.311
MCM6 (peptide sequence: VYPYLCR, peptide start residue: 86) (UniProt Q14566)	0.26
BMS1 (peptide sequence: KHFNSLHIPK, peptide start residue: 1159) (UniProt Q14692)	1.08
TRA2A (peptide sequence: IDDSKEAMER, peptide start residue: 170) (UniProt Q13595)	0.316
TRIM14 (peptide sequence: RYDLEYWAFHDGQR, peptide start residue: 366) (UniProt Q14142)	0.314
TRIM25 (peptide sequence: VLETFLAK, peptide start residue: 440) (UniProt Q14258)	0.295
UniProt Q15018 (peptide sequence: QMPSESLDPAFSPR, peptide start residue: 269)	-0.249
UniProt Q14590 (peptide sequence: SHLQAHER, peptide start residue: 416)	0.246
